# PubChem BioAssay AID1224830 | NIAID | 2016
# Aim: 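Host factors that control LPS-induced TNF expression in human macrophages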 (primary screen)
# Cell system: human THP-1 monocytic leukaemia cells, TNF dual-luciferase reporter clone, PMA-differentiated to macrophage-like cells
# Reagent: siRNA pool against human genes, 50 nM
# Time to read-out: LPS for 4 h, given about 3 days after siRNA transfection
# Treatment: bacterial LPS (TLR4 ligand), 10 ng/ml
# Measurement: 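Ratio of firefly to renilla light, scaled to the plate median and expressed as a robust z-score per replicate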
# Direction: TNF reporter robust z-score: higher = stronger TNF reporter response to LPS
# Call rule: 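a well is active when its z-score exceeds 2.8 or falls below -1.5; control wells carry no call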
# In all, the deposit lists about 18,000 reagents; below is an unselected part. About 2,900 of them (16%) count as active. 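Calls are made per well; low scores hint the gene aids the LPS response, high scores that it dampens it.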 Unmarked entries are inactive. Repeated entries: four replicate wells of each siRNA pool. Reagent sequences are not shown.
The opening 4 records, ahead of the listing:
target gene,TNF reporter robust z-score
CCER1 (coiled-coil glutamate rich protein 1),-0.07
CCER1 (coiled-coil glutamate rich protein 1),0.74
CCER1 (coiled-coil glutamate rich protein 1),0.65
CCER1 (coiled-coil glutamate rich protein 1),-0.65

Main list, from the start:
target gene,TNF reporter robust z-score
CCER1 (coiled-coil glutamate rich protein 1),-0.07
CCER1 (coiled-coil glutamate rich protein 1),0.74
CCER1 (coiled-coil glutamate rich protein 1),0.65
CCER1 (coiled-coil glutamate rich protein 1),-0.65
MRPL35 (mitochondrial ribosomal protein L35),0.96
MRPL35 (mitochondrial ribosomal protein L35),1.33
MRPL35 (mitochondrial ribosomal protein L35),0.97
MRPL35 (mitochondrial ribosomal protein L35),1.15
MNS1 (meiosis specific nuclear structural 1),-0.7
MNS1 (meiosis specific nuclear structural 1),-0.46
MNS1 (meiosis specific nuclear structural 1),-0.65
MNS1 (meiosis specific nuclear structural 1),-1.02
URM1 (ubiquitin related modifier 1),-0.65
URM1 (ubiquitin related modifier 1),-0.23
URM1 (ubiquitin related modifier 1),-0.85
URM1 (ubiquitin related modifier 1),-0.62
DDX53 (DEAD-box helicase 53),0.69
DDX53 (DEAD-box helicase 53),0.84
DDX53 (DEAD-box helicase 53),-0.11
DDX53 (DEAD-box helicase 53),0.83
RSF1 (remodeling and spacing factor 1),-0.21
RSF1 (remodeling and spacing factor 1),1.48
RSF1 (remodeling and spacing factor 1),0.26
RSF1 (remodeling and spacing factor 1),1.14
ZFP69 (ZFP69 zinc finger protein),-1.2
ZFP69 (ZFP69 zinc finger protein),-0.01
ZFP69 (ZFP69 zinc finger protein),-1.34
ZFP69 (ZFP69 zinc finger protein),0.09
SLCO1A2,1.42
SLCO1A2,0.57
SLCO1A2,1.3
SLCO1A2,1.53
COMMD5 (COMM domain containing 5),-0.73
COMMD5 (COMM domain containing 5),0.53
COMMD5 (COMM domain containing 5),-0.61
COMMD5 (COMM domain containing 5),-0.55
RHOT2 (ras homolog family member T2),0.96
RHOT2 (ras homolog family member T2),1.89
RHOT2 (ras homolog family member T2),1.71
RHOT2 (ras homolog family member T2),2
ANO6 (anoctamin 6),-0.49
ANO6 (anoctamin 6),0.6
ANO6 (anoctamin 6),-0.18
ANO6 (anoctamin 6),-0.21
CDK9 (cyclin dependent kinase 9),-0.48
CDK9 (cyclin dependent kinase 9),0.71
CDK9 (cyclin dependent kinase 9),-0.76
CDK9 (cyclin dependent kinase 9),-0.45
CALCOCO2 (calcium binding and coiled-coil domain 2),0.02
CALCOCO2 (calcium binding and coiled-coil domain 2),0.34
CALCOCO2 (calcium binding and coiled-coil domain 2),-0.57
CALCOCO2 (calcium binding and coiled-coil domain 2),-0.24
FAH (fumarylacetoacetate hydrolase),-0.76
FAH (fumarylacetoacetate hydrolase),0.54
FAH (fumarylacetoacetate hydrolase),-1.19
FAH (fumarylacetoacetate hydrolase),-0.41
LSM5,-1.02
LSM5,-0.2
LSM5,0.32
LSM5,0.07
"MAGOHB (mago homolog B, exon junction complex subunit)",-0.15
"MAGOHB (mago homolog B, exon junction complex subunit)",1.39
"MAGOHB (mago homolog B, exon junction complex subunit)",-0.05
"MAGOHB (mago homolog B, exon junction complex subunit)",1.89
UTP11 (UTP11 small subunit processome component),0.67
UTP11 (UTP11 small subunit processome component),-0.38
UTP11 (UTP11 small subunit processome component),-0.33
UTP11 (UTP11 small subunit processome component),0.46
KRTAP5-1 (keratin associated protein 5-1),1.1
KRTAP5-1 (keratin associated protein 5-1),0.53
KRTAP5-1 (keratin associated protein 5-1),0.7
KRTAP5-1 (keratin associated protein 5-1),1.69
CBX3 (chromobox 3),0.26
CBX3 (chromobox 3),0.7
CBX3 (chromobox 3),-0.26
CBX3 (chromobox 3),0.17
